Paper PMC7480081

Legend:
[1] = biological target: T1, Csa3b (Sulfolobus islandicus REY15A) (UniProt F0NH47); experiment: LSPR; details: protein immobilized; LSPR (OpenSPR, COOH chip, 20 uL/min, 5 min, 1:1 fit; running buffer not stated); recombinant protein
T1 sequence (looked up, limits assumed): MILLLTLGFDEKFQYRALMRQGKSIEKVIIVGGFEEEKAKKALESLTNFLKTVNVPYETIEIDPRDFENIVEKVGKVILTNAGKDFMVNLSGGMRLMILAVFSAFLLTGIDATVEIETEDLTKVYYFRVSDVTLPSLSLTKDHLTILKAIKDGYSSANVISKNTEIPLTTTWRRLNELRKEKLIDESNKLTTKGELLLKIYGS

[2] = biological target: T2, Csa3bM (CARF mutant) T6A,R16A,N89A,R95A (Sulfolobus islandicus REY15A) (UniProt F0NH47); experiment: LSPR; details: protein immobilized; LSPR (OpenSPR, COOH chip, 20 uL/min, 5 min, 1:1 fit; running buffer not stated); recombinant protein
T2 sequence (looked up, limits assumed): T1 sequence (looked up, limits assumed) with T6A, R16A, N89A, R95A

“CAAAA [5'-CAAAA-3' (cOA analog, called CA4 in figures)]” gave a Kd [1] of 46.1 µM and a Kd [2] of 123 µM.

Where a chain is given by its changes, count along the chain named. The exact form of at least one protein or probe is not confirmed. Protein sequences can lack the tags named with them.
